Measurements reported in PubChem BioAssay AID1508600 (Functional Genomics Laboratory (NCATS/FGL), 2020).
Hit rate of the full screen: of about 53,000 sequences, about 3,700 (7%) were called active.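 The calls were made as follows: active = gene knockdowns whose robust z-score for IL-1 alpha signal is at least 2 or at most -2, so actives lie on both sides; inactive = the rest.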 The list shows a part of the results.

assay: Components of the Cytosolic LPS Sensing Pathway: Gene Identification via Genome-wide siRNA Screen; conditions: RAW264.7 macrophages, IL-1a HTRF, actives lie on both sides, screened at 100 nM (by protocol), cells primed 5 h with Pam3CSK4 first;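 also: robust z of the log signal after scaling to non-targeting control siRNA wells of the plate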
In short: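 Cells (RAW264.7, 1×10^4 per well) were transfected with siRNA at 100 nM and cultured 48h at 37 degrees C. Pam3CSK4 was added for 5 hours; LipidA transfection followed for 24 hour. IL-1a was then measured by HTRF.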

Sequence | z-score
GGGCUACCUCAGUUUAAACTT against Spic | inactive: 0.763
GGAUGUGGACUCAAAGAAATT against Tmem38a | inactive: -0.683
GGUAGAUAUCAAUAAAGGATT against Olfr794 | inactive: 0.939
GGUGGAUCACAGGUUCAUGTT against Rhd | inactive: -1.37
CGCGCUUCUACUUUUUUUATT against Nkx2-1 | inactive: 0.406
GGUUUUCCUGCAUUUUUUATT against Rhou | inactive: 0.0175
GGUGACCACAGACAACAAGTT against Glra4 | inactive: -0.288
CCGUCAUCCGAGCAAUCAGTT against Kcnq5 | inactive: -0.248
CGGCAUCUUUUUGAAUCAATT against Ccdc88c | inactive: 1.11
GGUACUGUGCCUAGCCUUATT against Adrb2 | inactive: 0.525
GCCACUUCCGGCCUUUUUATT against Zfp422 | inactive: -0.367
GGUUCUCUGAUACCCACUCTT against Mgat4e | inactive: 0.44
GCACCUAUACCGCCGUAUCTT against Agpat3 | inactive: -0.176
GGGACUCUUGUUGGAUCCATT against Htr1d | inactive: -0.28
GUGGAAAAUUGAAGGGACGTT against Ndufb3 | active: 3.69
GGAUGAAAUUGUGUUAUCUTT against Snrk | inactive: -0.371
GCUAUCCGGAAAGCGAUCATT against Anxa3 | inactive: -1.41
CGCAUUCUAUUACUGUUACTT against Stxbp3 | inactive: -1.02
GGACUAUGAACCUACCAAATT against Rala | inactive: 0.092
GGGAUCAAUGUCAUCCUUUTT against Nif3l1 | inactive: -0.442
GGGUAUCAGUACCAAUGUUTT against Lrrc19 | inactive: 0.78
GGUGGAACUUCUAUACAAATT against Thbs1 | inactive: 1.25

Sequence | z-score
GGUUCUGAAGAUGGAGGUUTT against Ttbk2 | inactive: 1.22
GGAGUUUUCUUCAACUGGGTT against Atp6v0c | inactive: -1.06
GCGCACUGAGAUUGAAGAATT against Plcd4 | inactive: 0.326
CCUAAGAUUUUGGAACAAATT against Cenpm | inactive: -0.47
GAAAGAUGGAGACACCCUCTT against Pigx | inactive: 0.193
GUCCCAAUGCUCAAAAAAATT against Sugp1 | inactive: -0.271
GGAGGGACCAGAAAUAAUUTT against Snx18 | inactive: 1.18
GCCUGAAGAUGAUUCGAUUTT against Gbgt1 | inactive: 0.572
GGAGGAAUCAAAGGCUCCUTT against Slc39a5 | inactive: -0.319
GGAGCAGAAUGAGAAGACUTT against Marchf8 | active: 2.16
GGAUGGGUCAACAUUCUACTT against V1rb5 | inactive: -0.411
CCAUGUACCAGAUUAAGUATT against Krt8 | inactive: 1.16
GCAGUGGACUUUUUCUUAGTT against Nptx1 | inactive: 0.683
GGAGACCUCCUUUUCCAUUTT against Slc41a1 | inactive: -0.603
CCAUCAUCGAUGUGCCCUATT against Olfr355 | inactive: 1.89
GGAACUCCUGGAGCAGAACTT against Tbc1d10b | active: -2.52
GGUAUAGUGGAAGAAUACCTT against Bmpr1b | inactive: -0.955
GGUACUACGACCAUCUCCUTT against Tnfrsf13b | inactive: 1.11
GCACACAACUGGUAGUUUUTT against Chst1 | inactive: -0.0596
UUCAUGUAGGGUGUCUCUUTT against Olfr180 | inactive: 0.407
GCAAAAACCUAUAGGAAAATT against Srpk2 | active: 2.27
GGAAUGAGAAGGAAAAGGUTT against Arpc4 | inactive: 1.67

Sequence | z-score
GCUCUGUGCACUUAAGAGATT against Mbd3l2 | inactive: 0.246
CCCUCCACAGAUGAACACCTT against Lgals4 | active: -2.02
GGAGAAUCCUUCCUUGUUUTT against Il2rg | inactive: 1.41
GCAGCUACUGUGUUACAAATT against Afap1l1 | inactive: 1.17
CCUAGAGGAAGACUUAUGUTT against Fhl2 | inactive: 0.637
GGGUCAAUGGUAUUCCCAGTT against 4932411K12 | inactive: 0.394
GGAUCACUCCAGGAAGCAATT against Pdlim3 | inactive: 0.14
GGAUGGCUCUAUGCCAAGATT against Mrps27 | inactive: 0.992
CGGGACAUUCGUGAUCUUATT against Tmem114 | active: -2.38
GGUUCUCAUACAUAAACAATT against Mri1 | active: -2.87
GGACACCAACUUUCUGCCCTT against Ccn5 | inactive: -0.0244
GGAAAUUGCUAUUGCUUCATT against Olfr837 | inactive: -0.876
GGCCGUGAUCUUGGAAUAUTT against Pop4 | inactive: -0.296
GGACAAAGAGUGAAGCCAGTT against Reg4 | inactive: -1.52
GGAUCUCGAAGUUACUGCATT against Dnajc5b | inactive: 1.77
AGACCUUGAGAACAUUCUUTT against Nkx2-6 | inactive: 0.925
GGUGGUUACCAUCUUACUUTT against Trhr | inactive: 0.532
CCAGUAGUAUUUAUUGCUUTT against Tcf7l2 | inactive: 0.278
UGCGAGCUCACUGAUGUACTT against Adam34l | inactive: -1.69
GGUCUUUGCUACCAACCUGTT against Fignl1 | active: -2.15
GAUGGUCAUUGAUGUCCUUTT against Rps24 | inactive: -0.694
GGGAAACACAGAUUUCUUUTT against Cadm4 | inactive: -1.07

Sequence | z-score
GGAGAGAUUUUUCUAUCAUTT against Rab11fip3 | inactive: -0.361
GCUCAGGAAUUUGACACCATT against Adgrl3 | inactive: -1.33
GGUGAUGGUGUAUGUUGCUTT against Olfr309 | inactive: -1.08
GCUCUUUGGUCGAGAACCATT against Mup5 | active: -2.42
AUGUUUGAGAGCGACUUUATT against Fam71b | inactive: -1.59
GGUCAUUGAAGUGCAAGCCTT against 4931406C07Rik | inactive: 0.18
CCCUCUUAAGACAUGCAGGTT against Cltb | inactive: -0.156
GCUCUACCUCAGAUAAAGGTT against Banf2 | active: -2.45
GGGCAAAGUUGAAUAUCUGTT against Cbx7 | inactive: -1
GUUUCCUUGUGCUAAUGUUTT against Olfr1199 | inactive: 1.15
GGAAGUGGAAUUCUUCAGUTT against Rap1gds1 | inactive: 0.481
GGGAUGAGAACAAGAAUGUTT against Moap1 | inactive: 0.164
GCUUGGUCAUUUUAAUAGGTT against Zscan29 | inactive: -0.527
GCCUUUAAUACAUAGGCUUTT against Cxcl9 | inactive: -0.381
CCUGUCAGUCCAAUCAAUUTT against Ldlr | inactive: 0.426
GCACUCAAGACCUGUAUGATT against Cldn18 | inactive: 0.627
GCUGAAAGAUUUACUGCCCTT against Bhlhe41 | active: 2.95
GCUGCUUCCUCCUCAUUCUTT against Olfr934 | inactive: -0.394
GGUGCAUUCACGUAUUUACTT against Olfr1537 | inactive: 1.25
GGUUGUUUGGAAAUCAAAUTT against Crisp3 | inactive: 0.971
GGCAUGACUGGACUGAAAATT against Ythdf3 | inactive: -0.976
GUUCCUCUUCGUCAGCACATT against Gja4 | inactive: 0.173

For convenience, some entries already given:
Sequence | z-score
GGAAAUUGCUAUUGCUUCATT against Olfr837 | inactive: -0.876
GGCCGUGAUCUUGGAAUAUTT against Pop4 | inactive: -0.296
GGACAAAGAGUGAAGCCAGTT against Reg4 | inactive: -1.52
GGAUCUCGAAGUUACUGCATT against Dnajc5b | inactive: 1.77
AGACCUUGAGAACAUUCUUTT against Nkx2-6 | inactive: 0.925
GGUGGUUACCAUCUUACUUTT against Trhr | inactive: 0.532
CCAGUAGUAUUUAUUGCUUTT against Tcf7l2 | inactive: 0.278
UGCGAGCUCACUGAUGUACTT against Adam34l | inactive: -1.69
GGUCUUUGCUACCAACCUGTT against Fignl1 | active: -2.15
GAUGGUCAUUGAUGUCCUUTT against Rps24 | inactive: -0.694
GGGAAACACAGAUUUCUUUTT against Cadm4 | inactive: -1.07
GGAGAGAUUUUUCUAUCAUTT against Rab11fip3 | inactive: -0.361
GCUCAGGAAUUUGACACCATT against Adgrl3 | inactive: -1.33
GGUGAUGGUGUAUGUUGCUTT against Olfr309 | inactive: -1.08
GCUCUUUGGUCGAGAACCATT against Mup5 | active: -2.42
AUGUUUGAGAGCGACUUUATT against Fam71b | inactive: -1.59
GGUCAUUGAAGUGCAAGCCTT against 4931406C07Rik | inactive: 0.18
CCCUCUUAAGACAUGCAGGTT against Cltb | inactive: -0.156
GCUCUACCUCAGAUAAAGGTT against Banf2 | active: -2.45
GGGCAAAGUUGAAUAUCUGTT against Cbx7 | inactive: -1
GUUUCCUUGUGCUAAUGUUTT against Olfr1199 | inactive: 1.15
GGAAGUGGAAUUCUUCAGUTT against Rap1gds1 | inactive: 0.481
GGGAUGAGAACAAGAAUGUTT against Moap1 | inactive: 0.164
GCUUGGUCAUUUUAAUAGGTT against Zscan29 | inactive: -0.527
GCCUUUAAUACAUAGGCUUTT against Cxcl9 | inactive: -0.381
CCUGUCAGUCCAAUCAAUUTT against Ldlr | inactive: 0.426
GCACUCAAGACCUGUAUGATT against Cldn18 | inactive: 0.627
GCUGAAAGAUUUACUGCCCTT against Bhlhe41 | active: 2.95
GCUGCUUCCUCCUCAUUCUTT against Olfr934 | inactive: -0.394
GGUGCAUUCACGUAUUUACTT against Olfr1537 | inactive: 1.25
GGUUGUUUGGAAAUCAAAUTT against Crisp3 | inactive: 0.971
GGCAUGACUGGACUGAAAATT against Ythdf3 | inactive: -0.976

(listing goes on)

Sequence | z-score
GGCCGAUGUUUAUUCUUUUTT against Lrrk2 | inactive: 0.792
GGUAACUGUUACACAAAUCTT against Tmem161b | inactive: -0.291
GGGAAGCUCGUUUUAACAATT against Suds3 | inactive: 1.32
CGAAGUUAUGCCCAGAAUGTT against Ints14 | inactive: 0.0184
GGCGGCACGUUCACCUAAATT against Rnps1 | inactive: 1.86
GGUUGUUGGACCAGUGUAUTT against Ranbp6 | inactive: -0.0455
CGGCUCAUCCGAUAUAUCCTT against Hcn2 | inactive: -1.39
GCAUCAAAAACGAGCCCUUTT against Cyth1 | inactive: -0.644
GGGAUGAGAAAGUUCAGUUTT against Cox4i1 | inactive: 0.321
GAGCUUCUGGCUGAGAUAATT against Espn | inactive: -0.388
GCCGAUUGUCCUAUCUCCATT against Spg7 | inactive: 1.63
GGAUGUGCUAUCGAAGACATT against Gm11992 | inactive: 1.93
GGAAGACACAGUUUCUCUUTT against Hs6st3 | inactive: 0.532
CCUAUCUUGUCCGGUUUACTT against Cyb5rl | active: 3.99
GGAGCUGUUGAAAGAAUAUTT against Relt | active: 2.63
GCGACUAGAGAUCAAUUGCTT against Banp | inactive: 1.1
GCCAAUGAUAGAUUUGAACTT against Fam204a | inactive: -0.555
CCUGAAUGGACAAACAGGATT against Gm6460 | inactive: -0.193
GCCAUCGUCUACCUAUGACTT against Olfr358 | inactive: -1.85
